Drawing on PMC2987844, this text covers binding for one substance.

In this assay the target is T1, ephrinA5^FLAG (UniProt P52804).
T1 sequence: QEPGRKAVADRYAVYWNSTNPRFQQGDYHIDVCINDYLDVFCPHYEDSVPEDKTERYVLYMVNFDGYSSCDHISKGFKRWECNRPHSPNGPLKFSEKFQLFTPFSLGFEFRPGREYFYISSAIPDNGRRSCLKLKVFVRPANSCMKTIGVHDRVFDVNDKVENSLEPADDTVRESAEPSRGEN
Nature of the assay: co-IP; CHO cells transfected with ephrinA5^FLAG and TrkA^HA or p75^NTR;HA, low expression levels; lysed one day later; immunoprecipitation with αFLAG antibody; western blot. On the technique in general: A western blot detects proteins with antibodies after separation by electrophoresis.

These are yes or no findings as the source states them, for the method shown. In cells and extracts the contact can be indirect. A result given as binding can be weak or reduced; the word gives no strength. Where a sequence is shown, tags or fusion partners need not be part of it.

For TrkA^HA (receptor), the binding entry is “binds”.
